We go through six molecules from paper PMC12698754.

By UniProt entry, the sequences of proteins in these tests, tags left out.
UniProt P46379: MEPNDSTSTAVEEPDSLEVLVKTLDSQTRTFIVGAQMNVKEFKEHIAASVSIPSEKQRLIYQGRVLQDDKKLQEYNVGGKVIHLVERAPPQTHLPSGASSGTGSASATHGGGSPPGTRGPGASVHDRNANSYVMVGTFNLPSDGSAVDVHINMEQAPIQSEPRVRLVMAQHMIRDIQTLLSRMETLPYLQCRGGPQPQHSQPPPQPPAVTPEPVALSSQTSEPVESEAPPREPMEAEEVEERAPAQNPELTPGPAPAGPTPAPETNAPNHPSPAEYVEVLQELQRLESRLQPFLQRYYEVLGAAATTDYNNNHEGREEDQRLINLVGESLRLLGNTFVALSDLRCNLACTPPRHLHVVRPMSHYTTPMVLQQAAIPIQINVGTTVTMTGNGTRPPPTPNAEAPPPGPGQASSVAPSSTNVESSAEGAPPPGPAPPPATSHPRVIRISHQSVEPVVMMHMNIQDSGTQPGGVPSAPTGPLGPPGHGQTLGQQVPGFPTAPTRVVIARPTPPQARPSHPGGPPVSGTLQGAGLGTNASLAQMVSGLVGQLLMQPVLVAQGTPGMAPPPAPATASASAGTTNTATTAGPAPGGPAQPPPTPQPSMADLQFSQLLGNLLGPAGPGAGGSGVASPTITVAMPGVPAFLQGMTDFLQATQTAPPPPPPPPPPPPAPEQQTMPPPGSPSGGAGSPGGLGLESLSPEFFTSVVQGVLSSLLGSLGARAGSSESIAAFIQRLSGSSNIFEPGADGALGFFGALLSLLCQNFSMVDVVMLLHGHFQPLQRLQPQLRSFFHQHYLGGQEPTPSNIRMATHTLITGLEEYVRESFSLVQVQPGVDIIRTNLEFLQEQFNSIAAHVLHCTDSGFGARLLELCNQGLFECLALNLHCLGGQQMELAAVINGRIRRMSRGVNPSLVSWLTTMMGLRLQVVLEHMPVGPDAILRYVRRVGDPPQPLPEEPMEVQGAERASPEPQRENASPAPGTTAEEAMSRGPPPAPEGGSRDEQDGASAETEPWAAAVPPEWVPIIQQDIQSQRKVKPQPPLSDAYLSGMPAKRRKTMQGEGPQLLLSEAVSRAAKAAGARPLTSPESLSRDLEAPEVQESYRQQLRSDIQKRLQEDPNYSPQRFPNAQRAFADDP
UniProt Q09472: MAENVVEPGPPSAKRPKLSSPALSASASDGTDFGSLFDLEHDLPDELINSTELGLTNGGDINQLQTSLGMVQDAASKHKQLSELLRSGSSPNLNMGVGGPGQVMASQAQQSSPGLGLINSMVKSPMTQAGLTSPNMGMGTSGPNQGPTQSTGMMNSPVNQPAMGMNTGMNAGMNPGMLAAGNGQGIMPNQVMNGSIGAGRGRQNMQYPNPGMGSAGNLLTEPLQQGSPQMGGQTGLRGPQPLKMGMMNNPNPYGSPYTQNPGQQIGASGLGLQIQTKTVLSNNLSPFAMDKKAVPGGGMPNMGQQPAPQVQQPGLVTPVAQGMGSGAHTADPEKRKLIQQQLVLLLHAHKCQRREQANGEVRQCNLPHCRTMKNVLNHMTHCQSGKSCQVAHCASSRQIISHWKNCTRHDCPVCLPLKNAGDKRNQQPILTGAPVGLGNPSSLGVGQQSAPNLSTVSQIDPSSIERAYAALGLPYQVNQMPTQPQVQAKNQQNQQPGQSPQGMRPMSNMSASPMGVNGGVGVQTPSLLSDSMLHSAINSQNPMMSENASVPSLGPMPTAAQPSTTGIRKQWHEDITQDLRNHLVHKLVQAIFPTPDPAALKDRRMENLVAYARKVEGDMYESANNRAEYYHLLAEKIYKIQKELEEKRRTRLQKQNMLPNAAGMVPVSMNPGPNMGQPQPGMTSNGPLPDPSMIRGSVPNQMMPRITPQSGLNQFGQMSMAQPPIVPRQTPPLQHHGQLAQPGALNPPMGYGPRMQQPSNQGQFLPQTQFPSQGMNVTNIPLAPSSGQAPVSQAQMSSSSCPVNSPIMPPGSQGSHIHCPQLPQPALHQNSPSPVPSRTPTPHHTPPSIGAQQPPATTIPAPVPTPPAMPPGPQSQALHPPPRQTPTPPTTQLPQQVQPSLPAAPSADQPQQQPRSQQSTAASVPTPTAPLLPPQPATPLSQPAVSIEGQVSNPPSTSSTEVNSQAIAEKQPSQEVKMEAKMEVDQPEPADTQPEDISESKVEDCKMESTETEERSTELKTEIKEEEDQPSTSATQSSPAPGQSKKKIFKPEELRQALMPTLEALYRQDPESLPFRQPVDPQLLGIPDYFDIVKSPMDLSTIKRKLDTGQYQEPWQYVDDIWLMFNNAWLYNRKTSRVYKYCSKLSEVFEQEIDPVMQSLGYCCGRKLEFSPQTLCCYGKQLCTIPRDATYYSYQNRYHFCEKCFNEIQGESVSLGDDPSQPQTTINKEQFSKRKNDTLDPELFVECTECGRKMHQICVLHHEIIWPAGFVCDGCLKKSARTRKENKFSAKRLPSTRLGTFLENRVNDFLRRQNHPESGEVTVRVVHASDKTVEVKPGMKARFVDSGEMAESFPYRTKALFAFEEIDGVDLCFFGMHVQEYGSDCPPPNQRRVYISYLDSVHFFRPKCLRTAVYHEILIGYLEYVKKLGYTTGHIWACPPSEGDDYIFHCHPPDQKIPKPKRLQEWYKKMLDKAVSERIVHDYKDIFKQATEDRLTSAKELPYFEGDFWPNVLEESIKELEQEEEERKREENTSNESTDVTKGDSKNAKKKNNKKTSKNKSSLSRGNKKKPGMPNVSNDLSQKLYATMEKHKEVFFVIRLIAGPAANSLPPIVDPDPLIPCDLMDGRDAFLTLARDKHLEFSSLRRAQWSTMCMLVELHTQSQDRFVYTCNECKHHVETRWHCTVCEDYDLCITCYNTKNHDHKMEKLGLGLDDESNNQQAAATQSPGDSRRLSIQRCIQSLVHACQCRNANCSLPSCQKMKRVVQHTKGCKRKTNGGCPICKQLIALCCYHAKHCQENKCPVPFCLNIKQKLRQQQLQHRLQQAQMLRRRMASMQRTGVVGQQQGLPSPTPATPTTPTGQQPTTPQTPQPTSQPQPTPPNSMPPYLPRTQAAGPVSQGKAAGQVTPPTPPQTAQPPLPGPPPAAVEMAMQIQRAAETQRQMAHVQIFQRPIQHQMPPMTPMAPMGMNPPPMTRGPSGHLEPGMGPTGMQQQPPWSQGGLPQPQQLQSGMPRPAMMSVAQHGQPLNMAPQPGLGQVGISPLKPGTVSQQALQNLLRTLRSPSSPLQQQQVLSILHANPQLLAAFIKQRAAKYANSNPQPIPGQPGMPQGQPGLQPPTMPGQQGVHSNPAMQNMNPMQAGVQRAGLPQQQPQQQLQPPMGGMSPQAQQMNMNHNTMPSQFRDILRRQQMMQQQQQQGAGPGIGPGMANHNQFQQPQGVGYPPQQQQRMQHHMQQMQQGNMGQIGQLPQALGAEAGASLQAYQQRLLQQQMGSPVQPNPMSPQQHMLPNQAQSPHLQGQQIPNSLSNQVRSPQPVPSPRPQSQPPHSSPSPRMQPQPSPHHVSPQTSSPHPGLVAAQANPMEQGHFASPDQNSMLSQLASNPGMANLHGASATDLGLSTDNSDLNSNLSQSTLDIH

Test [1] addresses T1, RAB3A (endogenous) (human (endogenous in NCI-H1993 / NCI-H1975)) (UniProt P20336).
T1 sequence: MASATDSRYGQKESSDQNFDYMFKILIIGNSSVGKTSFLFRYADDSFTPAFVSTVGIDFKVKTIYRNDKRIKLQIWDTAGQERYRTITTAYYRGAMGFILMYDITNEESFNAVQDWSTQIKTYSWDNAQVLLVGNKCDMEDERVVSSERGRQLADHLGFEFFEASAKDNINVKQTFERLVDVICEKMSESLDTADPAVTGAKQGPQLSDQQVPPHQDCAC
Put plainly: co-IP; Co-IP from purified mitochondrial lysates (mitochondrial fractions).

For test [2], the target named is T1, RAB3A (endogenous) (human (endogenous in NCI-H1993 / NCI-H1975)). Put plainly: co-IP; endogenous immunoprecipitation: lysate pre-cleared with Protein A/G Agarose, target antibody overnight, Protein A/G Agarose capture, western blot, IgG control; for BAG6-EP300 NCI-H1993 cells with or without RAB3A knockdown. For orientation: A western blot detects proteins with antibodies after separation by electrophoresis.

The target in the next test is T2, RAB3A-Flag (UniProt P20336).
T2 sequence: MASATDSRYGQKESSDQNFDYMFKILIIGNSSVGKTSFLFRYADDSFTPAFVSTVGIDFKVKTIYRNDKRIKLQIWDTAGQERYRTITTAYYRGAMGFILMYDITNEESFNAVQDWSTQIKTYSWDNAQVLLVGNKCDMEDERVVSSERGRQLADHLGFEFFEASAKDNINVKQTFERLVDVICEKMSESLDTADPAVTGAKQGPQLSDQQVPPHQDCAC
The test can be described thus: co-IP; HEK-293T cells co-transfected with RAB3A-Flag and BAG6-HA, lysed in IP Lysis Buffer, anti-tag beads 3 h at 4 °C, western blot; reciprocal.

Test [3] addresses BAG6 (endogenous) (human (endogenous in NCI-H1993)) (UniProt P46379). Put plainly: co-IP; endogenous immunoprecipitation: lysate pre-cleared with Protein A/G Agarose, target antibody overnight, Protein A/G Agarose capture, western blot, IgG control; for BAG6-EP300 NCI-H1993 cells with or without RAB3A knockdown.
Test [4] concerns the target BAG6-HA (UniProt P46379). The test can be described thus: co-IP; HEK-293T cells transfected with EP300-Flag and BAG6-HA with or without RAB3A-V5, anti-tag beads, western blot.
For test [5], the target named is BAG6-HA (UniProt P46379). The test can be described thus: co-IP; HEK-293T cells co-transfected with RAB3A-Flag and BAG6-HA, lysed in IP Lysis Buffer, anti-tag beads 3 h at 4 °C, western blot; reciprocal.

Results are given in words; binding and its absence hold for the method and conditions named. Binding seen in cells or lysates may run through a third protein. Some binding calls cover weakened binding; strength is not graded here. For some of these results: Sequences can lack the tags named with a protein.

In the case of “BAG6 (endogenous) (from UniProt P46379 1-1132)”, the binding result in test [1] and in test [2] was “binds” throughout.

As to BAG6-HA (from UniProt P46379 1-1132), the binding result in the test with RAB3A-Flag is “binds”.

“EP300 (endogenous) (from UniProt Q09472 1-2414)”: the binding result in test [3] is “binds”.

Consider EP300-Flag (from UniProt Q09472 1-2414), for which the binding result in the test with BAG6-HA [4] is recorded as “binds”.

B1: RAB3A-Flag (protein, UniProt P20336 1-220)
chain: MASATDSRYGQKESSDQNFDYMFKILIIGNSSVGKTSFLFRYADDSFTPAFVSTVGIDFKVKTIYRNDKRIKLQIWDTAGQERYRTITTAYYRGAMGFILMYDITNEESFNAVQDWSTQIKTYSWDNAQVLLVGNKCDMEDERVVSSERGRQLADHLGFEFFEASAKDNINVKQTFERLVDVICEKMSESLDTADPAVTGAKQGPQLSDQQVPPHQDCAC
Regarding B1, in the test with BAG6-HA [5], the binding entry is “binds”.

B2: RAB3A-V5 (protein, UniProt P20336 1-220)
chain: MASATDSRYGQKESSDQNFDYMFKILIIGNSSVGKTSFLFRYADDSFTPAFVSTVGIDFKVKTIYRNDKRIKLQIWDTAGQERYRTITTAYYRGAMGFILMYDITNEESFNAVQDWSTQIKTYSWDNAQVLLVGNKCDMEDERVVSSERGRQLADHLGFEFFEASAKDNINVKQTFERLVDVICEKMSESLDTADPAVTGAKQGPQLSDQQVPPHQDCAC
B2: the binding result with BAG6-HA [4] is on record as “binds”.
